# Laboratory results from the supplement of paper PMC12823440, “Inhibitors supercharge kinase turnover through native proteolytic circuits” (Nature, 2025).
# Chains of the proteins cited; added tags and fusions are not shown. Lines headed by an entry give the natural chain unless they say otherwise; changes in a name come on top.
# UniProt P00519, whole entry: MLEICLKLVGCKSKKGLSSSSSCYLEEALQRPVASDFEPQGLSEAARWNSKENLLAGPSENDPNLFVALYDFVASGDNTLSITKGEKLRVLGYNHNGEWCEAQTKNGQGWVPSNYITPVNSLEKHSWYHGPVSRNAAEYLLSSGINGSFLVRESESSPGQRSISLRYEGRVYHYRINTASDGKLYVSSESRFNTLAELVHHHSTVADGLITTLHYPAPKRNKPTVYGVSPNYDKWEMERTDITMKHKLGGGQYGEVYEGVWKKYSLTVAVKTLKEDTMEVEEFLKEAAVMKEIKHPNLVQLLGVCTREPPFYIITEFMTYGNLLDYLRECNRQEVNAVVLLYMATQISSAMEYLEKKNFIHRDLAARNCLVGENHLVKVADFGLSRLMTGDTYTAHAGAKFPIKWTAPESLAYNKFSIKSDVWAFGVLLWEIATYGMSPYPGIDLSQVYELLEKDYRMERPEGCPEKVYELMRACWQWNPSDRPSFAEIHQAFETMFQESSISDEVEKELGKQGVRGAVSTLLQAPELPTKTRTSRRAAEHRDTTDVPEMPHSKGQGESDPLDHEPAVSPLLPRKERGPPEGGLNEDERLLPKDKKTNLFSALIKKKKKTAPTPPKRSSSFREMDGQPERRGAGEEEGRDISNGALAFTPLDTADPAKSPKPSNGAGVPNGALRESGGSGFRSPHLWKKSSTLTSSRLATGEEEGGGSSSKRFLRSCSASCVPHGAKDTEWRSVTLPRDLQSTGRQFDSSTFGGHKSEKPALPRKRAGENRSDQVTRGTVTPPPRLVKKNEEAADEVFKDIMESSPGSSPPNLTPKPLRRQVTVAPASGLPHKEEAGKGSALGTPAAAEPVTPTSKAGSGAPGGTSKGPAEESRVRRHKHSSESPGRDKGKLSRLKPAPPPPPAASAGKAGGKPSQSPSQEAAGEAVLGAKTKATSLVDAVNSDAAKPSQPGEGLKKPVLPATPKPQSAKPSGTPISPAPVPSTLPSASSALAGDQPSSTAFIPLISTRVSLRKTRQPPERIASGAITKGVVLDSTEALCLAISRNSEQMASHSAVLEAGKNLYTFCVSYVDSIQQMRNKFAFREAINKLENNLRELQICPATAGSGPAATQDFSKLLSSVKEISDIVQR
# UniProt P31749: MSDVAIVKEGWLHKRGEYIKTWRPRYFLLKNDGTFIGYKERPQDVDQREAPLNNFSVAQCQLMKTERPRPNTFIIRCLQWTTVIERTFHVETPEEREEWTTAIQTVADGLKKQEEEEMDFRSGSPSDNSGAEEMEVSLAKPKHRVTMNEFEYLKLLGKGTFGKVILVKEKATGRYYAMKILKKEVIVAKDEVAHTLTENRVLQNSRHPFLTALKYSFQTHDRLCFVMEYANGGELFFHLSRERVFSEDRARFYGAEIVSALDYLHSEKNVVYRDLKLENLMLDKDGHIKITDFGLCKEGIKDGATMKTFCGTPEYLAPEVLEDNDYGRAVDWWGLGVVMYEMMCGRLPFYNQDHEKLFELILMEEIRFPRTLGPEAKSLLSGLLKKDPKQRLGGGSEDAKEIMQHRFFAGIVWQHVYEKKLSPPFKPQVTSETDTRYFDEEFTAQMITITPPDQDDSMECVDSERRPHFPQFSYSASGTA
# UniProt Q9UM73: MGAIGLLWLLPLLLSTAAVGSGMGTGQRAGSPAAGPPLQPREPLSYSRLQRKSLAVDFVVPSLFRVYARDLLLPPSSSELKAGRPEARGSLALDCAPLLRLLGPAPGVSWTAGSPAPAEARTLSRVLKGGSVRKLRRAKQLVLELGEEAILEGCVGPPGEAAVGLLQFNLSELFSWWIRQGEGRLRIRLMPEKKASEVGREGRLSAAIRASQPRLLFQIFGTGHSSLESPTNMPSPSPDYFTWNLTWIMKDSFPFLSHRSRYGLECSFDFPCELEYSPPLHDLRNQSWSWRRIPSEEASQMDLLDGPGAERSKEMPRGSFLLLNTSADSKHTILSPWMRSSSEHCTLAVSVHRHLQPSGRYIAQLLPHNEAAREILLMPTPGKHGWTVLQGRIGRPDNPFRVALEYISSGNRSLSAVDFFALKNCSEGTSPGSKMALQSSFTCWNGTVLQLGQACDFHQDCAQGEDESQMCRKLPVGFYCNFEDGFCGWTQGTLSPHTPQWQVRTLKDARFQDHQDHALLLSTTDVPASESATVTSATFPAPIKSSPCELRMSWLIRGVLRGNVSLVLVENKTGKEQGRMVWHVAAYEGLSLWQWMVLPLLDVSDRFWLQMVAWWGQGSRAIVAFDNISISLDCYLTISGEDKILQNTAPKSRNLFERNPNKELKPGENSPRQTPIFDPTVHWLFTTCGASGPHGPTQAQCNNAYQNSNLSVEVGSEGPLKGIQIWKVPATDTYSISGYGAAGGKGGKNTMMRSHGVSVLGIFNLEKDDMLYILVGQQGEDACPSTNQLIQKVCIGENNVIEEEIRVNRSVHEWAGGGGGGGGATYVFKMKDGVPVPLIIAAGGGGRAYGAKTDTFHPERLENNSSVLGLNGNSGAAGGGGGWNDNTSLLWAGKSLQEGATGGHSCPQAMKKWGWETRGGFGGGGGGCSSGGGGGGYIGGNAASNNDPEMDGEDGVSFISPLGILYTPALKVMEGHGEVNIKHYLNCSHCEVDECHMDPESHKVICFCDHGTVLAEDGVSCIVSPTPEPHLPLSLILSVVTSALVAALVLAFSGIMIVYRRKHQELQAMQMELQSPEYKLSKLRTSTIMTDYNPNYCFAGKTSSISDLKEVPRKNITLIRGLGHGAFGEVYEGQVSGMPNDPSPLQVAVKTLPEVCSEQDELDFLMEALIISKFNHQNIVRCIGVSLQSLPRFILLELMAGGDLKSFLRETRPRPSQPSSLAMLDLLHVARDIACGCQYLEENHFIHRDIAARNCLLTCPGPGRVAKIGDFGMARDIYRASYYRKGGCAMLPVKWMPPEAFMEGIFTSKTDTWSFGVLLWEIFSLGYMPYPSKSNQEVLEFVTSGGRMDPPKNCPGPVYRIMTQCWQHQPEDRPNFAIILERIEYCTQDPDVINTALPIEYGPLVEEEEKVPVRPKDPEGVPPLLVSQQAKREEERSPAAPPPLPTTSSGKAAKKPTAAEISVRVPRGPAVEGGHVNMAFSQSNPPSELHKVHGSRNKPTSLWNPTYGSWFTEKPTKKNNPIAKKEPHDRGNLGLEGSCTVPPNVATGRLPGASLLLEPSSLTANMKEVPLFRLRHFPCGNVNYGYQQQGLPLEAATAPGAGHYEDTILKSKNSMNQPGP
# UniProt P10398: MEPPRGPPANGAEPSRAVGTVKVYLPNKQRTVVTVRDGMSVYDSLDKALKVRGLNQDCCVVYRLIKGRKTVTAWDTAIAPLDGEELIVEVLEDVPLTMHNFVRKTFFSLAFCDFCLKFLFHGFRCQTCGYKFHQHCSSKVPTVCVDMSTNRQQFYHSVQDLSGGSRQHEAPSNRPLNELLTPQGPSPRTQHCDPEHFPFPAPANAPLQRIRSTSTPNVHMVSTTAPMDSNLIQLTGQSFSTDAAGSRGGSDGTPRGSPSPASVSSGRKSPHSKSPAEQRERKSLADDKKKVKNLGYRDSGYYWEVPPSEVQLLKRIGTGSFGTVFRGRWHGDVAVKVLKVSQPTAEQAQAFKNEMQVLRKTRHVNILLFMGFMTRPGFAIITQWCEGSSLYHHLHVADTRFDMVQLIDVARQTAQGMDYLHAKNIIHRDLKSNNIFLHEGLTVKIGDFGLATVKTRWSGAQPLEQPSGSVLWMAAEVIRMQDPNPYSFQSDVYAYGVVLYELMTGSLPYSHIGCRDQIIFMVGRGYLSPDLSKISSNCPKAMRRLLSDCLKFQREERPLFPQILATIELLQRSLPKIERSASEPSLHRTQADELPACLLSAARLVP
# UniProt O14965: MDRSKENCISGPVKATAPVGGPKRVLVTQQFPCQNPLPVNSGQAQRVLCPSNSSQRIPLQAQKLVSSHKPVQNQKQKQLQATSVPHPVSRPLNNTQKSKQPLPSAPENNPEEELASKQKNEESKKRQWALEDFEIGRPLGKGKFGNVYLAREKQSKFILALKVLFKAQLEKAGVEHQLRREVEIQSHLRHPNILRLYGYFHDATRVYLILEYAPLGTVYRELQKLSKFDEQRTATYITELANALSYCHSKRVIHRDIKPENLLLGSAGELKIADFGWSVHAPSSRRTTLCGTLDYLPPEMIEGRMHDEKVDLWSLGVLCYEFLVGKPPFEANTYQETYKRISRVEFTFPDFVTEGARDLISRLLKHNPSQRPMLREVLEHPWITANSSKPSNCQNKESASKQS
# UniProt Q96GD4, whole entry: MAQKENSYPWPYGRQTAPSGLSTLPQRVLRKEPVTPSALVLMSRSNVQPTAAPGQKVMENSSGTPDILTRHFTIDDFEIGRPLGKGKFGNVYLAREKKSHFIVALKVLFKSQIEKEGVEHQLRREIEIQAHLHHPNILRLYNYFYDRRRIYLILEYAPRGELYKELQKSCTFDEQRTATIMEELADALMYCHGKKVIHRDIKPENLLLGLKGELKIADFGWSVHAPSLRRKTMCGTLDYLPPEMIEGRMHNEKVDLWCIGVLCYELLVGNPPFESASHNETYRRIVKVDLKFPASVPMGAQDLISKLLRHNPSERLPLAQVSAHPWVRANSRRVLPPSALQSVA
# UniProt Q9UQB9: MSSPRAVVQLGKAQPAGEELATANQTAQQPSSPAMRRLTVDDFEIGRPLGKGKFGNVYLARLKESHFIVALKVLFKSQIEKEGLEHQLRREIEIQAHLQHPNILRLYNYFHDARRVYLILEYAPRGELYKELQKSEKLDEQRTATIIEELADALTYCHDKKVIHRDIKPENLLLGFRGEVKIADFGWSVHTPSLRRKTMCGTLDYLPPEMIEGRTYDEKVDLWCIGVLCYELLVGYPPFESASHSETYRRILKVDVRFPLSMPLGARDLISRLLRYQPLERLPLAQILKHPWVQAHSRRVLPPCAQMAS
# UniProt P51451: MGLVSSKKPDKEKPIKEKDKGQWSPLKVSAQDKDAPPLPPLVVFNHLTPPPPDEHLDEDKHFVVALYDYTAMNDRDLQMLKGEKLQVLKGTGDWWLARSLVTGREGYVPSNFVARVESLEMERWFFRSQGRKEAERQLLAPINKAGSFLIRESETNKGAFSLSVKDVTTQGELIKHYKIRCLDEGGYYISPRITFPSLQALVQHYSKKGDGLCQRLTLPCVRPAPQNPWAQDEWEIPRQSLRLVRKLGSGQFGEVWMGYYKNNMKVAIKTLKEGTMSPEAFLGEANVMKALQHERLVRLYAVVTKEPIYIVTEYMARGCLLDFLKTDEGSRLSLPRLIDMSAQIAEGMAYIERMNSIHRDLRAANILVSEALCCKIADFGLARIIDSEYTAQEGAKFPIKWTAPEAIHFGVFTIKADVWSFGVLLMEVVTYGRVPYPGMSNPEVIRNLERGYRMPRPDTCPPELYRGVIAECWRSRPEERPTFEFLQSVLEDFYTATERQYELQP
# UniProt P51813: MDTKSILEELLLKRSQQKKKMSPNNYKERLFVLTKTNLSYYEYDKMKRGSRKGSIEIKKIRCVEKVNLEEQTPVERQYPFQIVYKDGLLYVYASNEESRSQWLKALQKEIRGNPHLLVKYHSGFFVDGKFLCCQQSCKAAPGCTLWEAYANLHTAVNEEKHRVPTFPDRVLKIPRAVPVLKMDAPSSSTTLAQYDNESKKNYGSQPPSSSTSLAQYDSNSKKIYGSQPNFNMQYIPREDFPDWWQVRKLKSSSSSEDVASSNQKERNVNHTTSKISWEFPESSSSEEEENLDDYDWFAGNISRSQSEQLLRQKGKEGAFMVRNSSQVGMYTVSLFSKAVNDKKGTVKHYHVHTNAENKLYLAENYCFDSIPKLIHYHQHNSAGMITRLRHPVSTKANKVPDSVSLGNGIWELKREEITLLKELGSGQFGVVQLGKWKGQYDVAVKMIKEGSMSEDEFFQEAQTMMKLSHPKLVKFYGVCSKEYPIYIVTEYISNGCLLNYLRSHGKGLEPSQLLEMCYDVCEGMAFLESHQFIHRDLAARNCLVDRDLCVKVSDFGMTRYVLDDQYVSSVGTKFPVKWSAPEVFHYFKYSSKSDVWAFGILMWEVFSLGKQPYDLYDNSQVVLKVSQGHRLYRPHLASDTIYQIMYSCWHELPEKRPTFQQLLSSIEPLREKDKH
# Counter-ions that a name gives are not always drawn. The list shows a part of the results. Hit calls seldom repeat between salt and free forms of one compound.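 Kinases were expressed as nanoluciferase fusions in K562 cells and luminescence was read every 4 h between 2 and 18 h as percent of control, DMSO set to 100% and a positive control to 0%. A time point counts as decreased when the signal drops significantly (2 sigma). The hit call is the authors' own, does not follow from the count of time points alone, and its rule is not shown.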
# Key:
# Experiment in all cases: kinase-Nluc reporter destabilization hit call (1 = scored as downregulated) (binary); higher = compound decreases kinase abundance
# Conditions in all cases: K562; 2-18 h
# ABL1 = ABL1 (UniProt P00519)
# AKT1 = AKT1 (UniProt P31749)
# ALK = ALK (UniProt Q9UM73)
# ARAF = ARAF (UniProt P10398)
# AURKA = AURKA (UniProt O14965)
# AURKB = AURKB (UniProt Q96GD4)
# AURKC = AURKC (UniProt Q9UQB9)
# BLK = BLK (UniProt P51451)
# BMX = BMX (UniProt P51813)
# BRAF = BRAF (UniProt P15056)
Compound,kinase-Nluc reporter destabilization hit call (ABL1),kinase-Nluc reporter destabilization hit call (AKT1),kinase-Nluc reporter destabilization hit call (ALK),kinase-Nluc reporter destabilization hit call (ARAF),kinase-Nluc reporter destabilization hit call (AURKA),kinase-Nluc reporter destabilization hit call (AURKB),kinase-Nluc reporter destabilization hit call (AURKC),kinase-Nluc reporter destabilization hit call (BLK),kinase-Nluc reporter destabilization hit call (BMX),kinase-Nluc reporter destabilization hit call (BRAF)
COc1ccc(Cn2cc(C(=O)N=Nc3c(O)[nH]c4c(C)cccc34)nn2)cc1 [MARK4 inhibitor 1] (10 µM),inactive: 0,inactive: 0,inactive: 0,inactive: 0,inactive: 0,inactive: 0,inactive: 0,inactive: 0,inactive: 0,inactive: 0
CC(=O)N1CCN(c2cc(-c3cc(C(F)(F)F)c4c(N)ncnn34)ccc2C#N)C(=O)C1(C)C (10 µM),inactive: 0,inactive: 0,inactive: 0,inactive: 0,inactive: 0,inactive: 0,inactive: 0,inactive: 0,inactive: 0,inactive: 0
COC1(C(=O)N2Cc3nc(Cl)nc(N[C@H](C)c4cc(N)cc(C(F)(F)F)c4)c3C2)CCOCC1 (10 µM),inactive: 0,inactive: 0,inactive: 0,inactive: 0,inactive: 0,inactive: 0,inactive: 0,inactive: 0,inactive: 0,inactive: 0
COCCOc1cnc(Sc2cc(C)c(-c3csc(NC(=O)c4ccncc4)n3)c(C)c2)cn1 [T-1101 (tosylate)] (2.5 µM),inactive: 0,inactive: 0,inactive: 0,inactive: 0,inactive: 0,inactive: 0,inactive: 0,inactive: 0,inactive: 0,inactive: 0
Cn1cc(-c2ccc(CNc3cc(-c4cnc5cc(OCCCN6CCCC6)ccn45)ncn3)cc2)cn1 (10 µM),inactive: 0,inactive: 0,inactive: 0,inactive: 0,inactive: 0,inactive: 0,inactive: 0,inactive: 0,inactive: 0,inactive: 0
CS(=O)(=O)c1ccc(-c2cnc(N)c(C(=O)Nc3ccccc3)n2)cc1 (10 µM),inactive: 0,inactive: 0,inactive: 0,inactive: 0,inactive: 0,inactive: 0,inactive: 0,inactive: 0,inactive: 0,inactive: 0
O=C(Nc1cccnc1)c1cc(C(=O)c2c(F)cccc2Br)c[nH]1 (10 µM),inactive: 0,inactive: 0,inactive: 0,inactive: 0,inactive: 0,inactive: 0,inactive: 0,inactive: 0,inactive: 0,inactive: 0
CC(C)CN(CC(=O)N1CCN(CC(OCc2ccc3ccccc3c2)c2ccc(Cl)cc2Cl)CC1)CC(C)C (stereo not given) [LYN-1604 (dihydrochloride)] (2.5 µM),inactive: 0,inactive: 0,inactive: 0,inactive: 0,inactive: 0,inactive: 0,inactive: 0,inactive: 0,inactive: 0,inactive: 0
N#Cc1cccc(-c2c[nH]c3ncnc(N4CCOCC4)c23)c1 (10 µM),inactive: 0,inactive: 0,inactive: 0,inactive: 0,inactive: 0,inactive: 0,inactive: 0,inactive: 0,inactive: 0,inactive: 0
C=CC(=O)Nc1ccc(CN(C(=O)Nc2c(Cl)c(OC)cc(OC)c2Cl)c2cc(Nc3ccc(N4CCN(C)CC4)cc3)ncn2)cc1 (10 µM),inactive: 0,inactive: 0,inactive: 0,inactive: 0,inactive: 0,inactive: 0,inactive: 0,inactive: 0,inactive: 0,inactive: 0
O=C(Nc1nc2ccccc2[nH]1)c1cccc(-n2cccc2)c1 (10 µM),inactive: 0,inactive: 0,inactive: 0,inactive: 0,inactive: 0,inactive: 0,inactive: 0,inactive: 0,inactive: 0,inactive: 0
Cc1noc(C)c1-c1ccc(-c2cc(C(N)=O)c(NC(N)=O)s2)c(O[C@H]2CCNC2)c1 (10 µM),inactive: 0,inactive: 0,inactive: 0,inactive: 0,inactive: 0,inactive: 0,inactive: 0,inactive: 0,inactive: 0,inactive: 0
NCc1ccc(Nc2ncc(F)c(Nc3ccccc3)n2)cc1 (10 µM),inactive: 0,inactive: 0,inactive: 0,inactive: 0,inactive: 0,inactive: 0,inactive: 0,inactive: 0,inactive: 0,inactive: 0
Cc1cc(NC(=O)c2cccc(NC(=O)/C=C/CN(C)C)c2)ccc1Nc1nccc(-c2cccnc2)n1 (10 µM),inactive: 0,inactive: 0,inactive: 0,inactive: 0,inactive: 0,inactive: 0,inactive: 0,inactive: 0,inactive: 0,inactive: 0
CC/C=C\C/C=C\C/C=C\CCCCCCCC(=O)O [α-Linolenic acid] (10 µM),inactive: 0,inactive: 0,inactive: 0,inactive: 0,inactive: 0,inactive: 0,inactive: 0,inactive: 0,inactive: 0,inactive: 0
C=C(CCC=C(C)C)[C@H]1CC[C@]2(C)[C@@H]1[C@H](O)C[C@@H]1[C@@]3(C)CC[C@H](O[C@@H]4O[C@H](CO)[C@@H](O)[C@H](O)[C@H]4O[C@@H]4O[C@H](CO)[C@@H](O)[C@H](O)[C@H]4O)C(C)(C)[C@@H]3CC[C@]12C [Ginsenoside Rk1] (10 µM),inactive: 0,inactive: 0,inactive: 0,inactive: 0,inactive: 0,inactive: 0,inactive: 0,inactive: 0,inactive: 0,inactive: 0
Cc1ccc(-c2c(C(=O)CCl)n(CCCO)c3ncnc(N)c23)cc1 (10 µM),inactive: 0,inactive: 0,inactive: 0,inactive: 0,inactive: 0,active: 1,inactive: 0,inactive: 0,inactive: 0,inactive: 0
O=[N+]([O-])c1cc(C(F)(F)F)cc([N+](=O)[O-])c1NNC(=S)Nc1ccc(F)cc1 (10 µM),inactive: 0,inactive: 0,inactive: 0,inactive: 0,inactive: 0,inactive: 0,inactive: 0,inactive: 0,inactive: 0,inactive: 0
O=C(NCCO)c1ccc2c(c1)nc(Nc1cccc(Cl)c1)c1ccncc12 [CK2 inhibitor 2] (10 µM),inactive: 0,inactive: 0,inactive: 0,inactive: 0,inactive: 0,inactive: 0,inactive: 0,inactive: 0,inactive: 0,inactive: 0
Cc1c(CN2CCN(C(=O)[C@H](C)O)CC2)sc2c(N3CCOCC3)nc(-c3cnc(N)nc3)nc12 [Apitolisib] (10 µM),active: 1,inactive: 0,inactive: 0,inactive: 0,inactive: 0,inactive: 0,inactive: 0,inactive: 0,inactive: 0,inactive: 0
O=C(Nc1ccc2[nH]nc(-c3ccncc3)c2c1)[C@@H]1CCN(CC(=O)N2CCN(c3ccc(-c4ncccn4)cc3)CC2)C1 (2.5 µM),inactive: 0,inactive: 0,inactive: 0,inactive: 0,inactive: 0,inactive: 0,inactive: 0,inactive: 0,inactive: 0,inactive: 0
C=CC(=O)Nc1cccc(C)c1Nc1ncc2cc(-c3c(Cl)c(OC)cc(OC)c3Cl)ccc2n1 (2.5 µM),inactive: 0,inactive: 0,inactive: 0,inactive: 0,inactive: 0,inactive: 0,inactive: 0,inactive: 0,inactive: 0,inactive: 0
Cc1ccc(S(=O)(=O)Nc2ccccc2C=Nc2ccccc2NS(=O)(=O)c2ccc(C)cc2)cc1 (10 µM),inactive: 0,inactive: 0,inactive: 0,inactive: 0,inactive: 0,inactive: 0,inactive: 0,inactive: 0,inactive: 0,inactive: 0
COc1cc2c[n+](C)c3c4cc5c(cc4ccc3c2cc1OC)OCO5 [Nitidine (chloride)] (2 µM),inactive: 0,inactive: 0,inactive: 0,inactive: 0,inactive: 0,inactive: 0,inactive: 0,inactive: 0,inactive: 0,inactive: 0
CN1CCN(c2ccc(C(=O)Nc3cc(-c4cccc(NS(=O)(=O)c5ccccc5)c4)[nH]n3)cc2)CC1 [BPR1J-097 Hydrochloride] (2.5 µM),inactive: 0,inactive: 0,inactive: 0,inactive: 0,inactive: 0,inactive: 0,inactive: 0,inactive: 0,inactive: 0,inactive: 0
"O=C(O)c1cc(O)ccc1O [2,5-Dihydroxybenzoic acid] (10 µM)",inactive: 0,inactive: 0,inactive: 0,inactive: 0,inactive: 0,inactive: 0,inactive: 0,inactive: 0,inactive: 0,inactive: 0
CC(C)(C)c1ccc(S(=O)(=O)Nc2ccc(-n3ccnc3)cc2)cc1 (10 µM),inactive: 0,inactive: 0,inactive: 0,inactive: 0,inactive: 0,inactive: 0,inactive: 0,inactive: 0,inactive: 0,inactive: 0
Cc1cc(Nc2cc(Cl)nc(Oc3ccc([N+](=O)[O-])cc3)n2)n[nH]1 [Autophinib] (2.5 µM),inactive: 0,inactive: 0,inactive: 0,inactive: 0,inactive: 0,inactive: 0,inactive: 0,inactive: 0,inactive: 0,inactive: 0

# Single values from the list:
# Value of Cc1cc(Nc2cc(Cl)nc(Oc3ccc([N+](=O)[O-])cc3)n2)n[nH]1 [Autophinib] (2.5 µM) under kinase-Nluc reporter destabilization hit call (BMX): inactive: 0
# Value of Cc1ccc(S(=O)(=O)Nc2ccccc2C=Nc2ccccc2NS(=O)(=O)c2ccc(C)cc2)cc1 (10 µM) under kinase-Nluc reporter destabilization hit call (AURKA): inactive: 0
